Molecules are shown by their SMILES. Where “and” joins values, the source holds several entries; their conditions need not be identical. Identical values can stand only once. This is one part of the list. Single wells; the ratio to wells without odorant was worked out here, and repeats agree poorly.

Results on 4 compounds are retold here after the odorant receptor screen of Mainland et al. (2015).

Holding throughout (assay): odorant receptor activation (CRE luciferase / Renilla) (fold of no-odor wells); higher = more activation
Conditions in all cases: 100 µM

Experiment [1] concerns OR1J2 clone 1443.
Experiment [2] relates to OR1J4 clone 1429.
The test system of experiment [3] is OR1K1 clone 1315.
Experiment [4] has as its system OR1L1 clone 1379.
Experiment [5] deals with OR1L3 clone 1090.
The subject of experiment [6] is OR1L4 G234R clone 1102.
The test system of experiment [7] is OR1L6 Q23K/C150Y/I215T/R221Q/M223I/G234R clone 1539.
For experiment [8], the system named is OR1L8 clone 1088.
Experiment [9] relates to OR1M1 clone 1198.
For experiment [10], the system named is OR1N1 clone 1463.
Experiment [11] has as its system OR1N2 W37R/V244G/T301M clone 1350.
In experiment [12] the test system is OR1N2 clone 1505.
Experiment [13] concerns OR1Q1 Q24R/I163M clone 1103.
In experiment [14] the test system is OR1S1 clone 1455.
Experiment [15] deals with OR1S2 I46T clone 1137.
Experiment [16] concerns OR2A1 clone 1078.
In experiment [17] the test system is OR2A12 clone 1085.
Experiment [18] relates to OR2A14 Indel clone 1540.
In experiment [19] the test system is OR2A14 clone 1083.
For experiment [20], the system named is OR1N2 W23R/V230G/T287M clone 1105.

`CCOc1cc(C=O)ccc1O` [ethyl vanillin]: the odorant receptor activation was 1.22 and 1.32 in experiment [1]; 1.45 and 1.17 in experiment [2]; 1.79 and 1.2 in [3]; 0.94 and 1.19 in experiment [4]; 2.21 and 1.07 in [5]; 1.33 and 1.27 in experiment [6]. In addition, the odorant receptor activation in [7] was 0.862; in [8] it was 1.1 and 1.18; in experiment [9], 1.41 and 1.36; in [10], 1.6 and 2.28 and 1.21; in [11] it was 1.4 and 2.16 and 1.15; in experiment [12], 1.39 and 2.35 and 1.02. Besides, the odorant receptor activation in [13] was 0.391 and 1.17; in [14], 0.794; in experiment [15], 1.5 and 1.29; in experiment [16], 1.86 and 0.844; in experiment [17] it was 2.38 and 1.02; in experiment [18], 1.47. The odorant receptor activation in experiment [19] was 0.463 and 1.11.

Consider `CCC(C)=O` [2-butanone], for which the odorant receptor activation in experiment [1] turned out to be 1.05; in experiment [2], 1.03; in experiment [3] it was 1.06; in experiment [4] it was 0.992; in experiment [5] it was 28.7; in experiment [6], 17. Further, the odorant receptor activation in [7] was 1.13; in [8] it was 2.7; in [9], 0.992; in [10] it was 0.846; in [20] it was 4.49; in experiment [11] it was 1.29. Besides, the odorant receptor activation is 1.05 in experiment [12]; 16.9 in experiment [13]; 0.789 in experiment [14]; 1.11 in experiment [15]; 3.77 in experiment [16]; 3.07 in [17]. In addition, the values for the odorant receptor activation in [18] and in [19] were 1.21 and 2.34, respectively.

Regarding `CCCCOC(C)=O` [butyl acetate], the odorant receptor activation in [1] worked out at 0.3; in [2] it was 0.247; in experiment [3], 0.738; in experiment [4], 0.231; in [5] it was 1.08; in [6], 1.15. The odorant receptor activation in [7] amounted to 1.25; in [8], 1.2; in experiment [9], 0.918; in experiment [10], 0.863; in experiment [20], 1.38; in [11] it was 0.951. In addition, the odorant receptor activation was 1.06 in experiment [12]; 1.12 in experiment [13]; 1.37 in [14]; 1.05 in experiment [15]; 1.08 in [16]; 1.45 in experiment [17]. The figures for the odorant receptor activation in [18] and in experiment [19] were 0.912 and 1.13, respectively.

`CS` [methanethiol]: the odorant receptor activation in experiment [1] was found to be 1.38; in [2], 1.05; in [3], 0.241; in experiment [4] it was 0.881; in experiment [5], 1.13; in [6], 1.05. The odorant receptor activation in experiment [7] turned out to be 1.12; in experiment [8], 0.894; in experiment [9], 1.21; in experiment [10], 0.945; in experiment [20], 1.09; in experiment [11], 0.901. In addition, the odorant receptor activation in experiment [12] turned out to be 0.985; in experiment [13], 1.06; in [14], 0.539; in experiment [15], 1.08; in [16], 1.01; in experiment [17] it was 1.15. The odorant receptor activation in [18] worked out at 0.887; in experiment [19], 0.979.
